No constants are given. Whether binding was seen depends on the method and setting. In cells and extracts the contact can be indirect. Some binding calls cover weakened binding; strength is not graded here.
Experiments:
[1] = target: RELA/p65, endogenous in 4T1 cells (mouse (endogenous in 4T1)) (UniProt Q04207); test: co-IP
[2] = target: FLAG-RELA (RelA cFlag pcDNA3) (UniProt Q04207); test: co-IP

Chains of the proteins cited; added tags and fusions are not shown.
UniProt Q04207: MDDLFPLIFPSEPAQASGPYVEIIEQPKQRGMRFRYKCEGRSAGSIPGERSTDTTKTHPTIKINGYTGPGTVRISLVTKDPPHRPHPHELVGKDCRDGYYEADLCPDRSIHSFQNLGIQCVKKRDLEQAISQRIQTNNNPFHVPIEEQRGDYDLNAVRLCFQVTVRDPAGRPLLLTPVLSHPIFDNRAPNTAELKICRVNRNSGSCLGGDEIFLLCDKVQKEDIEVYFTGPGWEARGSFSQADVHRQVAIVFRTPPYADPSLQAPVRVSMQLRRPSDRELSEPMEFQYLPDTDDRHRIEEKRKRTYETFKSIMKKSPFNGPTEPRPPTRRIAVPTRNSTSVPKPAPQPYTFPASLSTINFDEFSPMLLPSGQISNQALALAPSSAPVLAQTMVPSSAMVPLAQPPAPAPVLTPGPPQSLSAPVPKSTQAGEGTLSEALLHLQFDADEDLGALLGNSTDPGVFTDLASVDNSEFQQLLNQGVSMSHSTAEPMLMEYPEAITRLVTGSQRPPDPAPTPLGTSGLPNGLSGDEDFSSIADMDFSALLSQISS
UniProt E9Q2Z1: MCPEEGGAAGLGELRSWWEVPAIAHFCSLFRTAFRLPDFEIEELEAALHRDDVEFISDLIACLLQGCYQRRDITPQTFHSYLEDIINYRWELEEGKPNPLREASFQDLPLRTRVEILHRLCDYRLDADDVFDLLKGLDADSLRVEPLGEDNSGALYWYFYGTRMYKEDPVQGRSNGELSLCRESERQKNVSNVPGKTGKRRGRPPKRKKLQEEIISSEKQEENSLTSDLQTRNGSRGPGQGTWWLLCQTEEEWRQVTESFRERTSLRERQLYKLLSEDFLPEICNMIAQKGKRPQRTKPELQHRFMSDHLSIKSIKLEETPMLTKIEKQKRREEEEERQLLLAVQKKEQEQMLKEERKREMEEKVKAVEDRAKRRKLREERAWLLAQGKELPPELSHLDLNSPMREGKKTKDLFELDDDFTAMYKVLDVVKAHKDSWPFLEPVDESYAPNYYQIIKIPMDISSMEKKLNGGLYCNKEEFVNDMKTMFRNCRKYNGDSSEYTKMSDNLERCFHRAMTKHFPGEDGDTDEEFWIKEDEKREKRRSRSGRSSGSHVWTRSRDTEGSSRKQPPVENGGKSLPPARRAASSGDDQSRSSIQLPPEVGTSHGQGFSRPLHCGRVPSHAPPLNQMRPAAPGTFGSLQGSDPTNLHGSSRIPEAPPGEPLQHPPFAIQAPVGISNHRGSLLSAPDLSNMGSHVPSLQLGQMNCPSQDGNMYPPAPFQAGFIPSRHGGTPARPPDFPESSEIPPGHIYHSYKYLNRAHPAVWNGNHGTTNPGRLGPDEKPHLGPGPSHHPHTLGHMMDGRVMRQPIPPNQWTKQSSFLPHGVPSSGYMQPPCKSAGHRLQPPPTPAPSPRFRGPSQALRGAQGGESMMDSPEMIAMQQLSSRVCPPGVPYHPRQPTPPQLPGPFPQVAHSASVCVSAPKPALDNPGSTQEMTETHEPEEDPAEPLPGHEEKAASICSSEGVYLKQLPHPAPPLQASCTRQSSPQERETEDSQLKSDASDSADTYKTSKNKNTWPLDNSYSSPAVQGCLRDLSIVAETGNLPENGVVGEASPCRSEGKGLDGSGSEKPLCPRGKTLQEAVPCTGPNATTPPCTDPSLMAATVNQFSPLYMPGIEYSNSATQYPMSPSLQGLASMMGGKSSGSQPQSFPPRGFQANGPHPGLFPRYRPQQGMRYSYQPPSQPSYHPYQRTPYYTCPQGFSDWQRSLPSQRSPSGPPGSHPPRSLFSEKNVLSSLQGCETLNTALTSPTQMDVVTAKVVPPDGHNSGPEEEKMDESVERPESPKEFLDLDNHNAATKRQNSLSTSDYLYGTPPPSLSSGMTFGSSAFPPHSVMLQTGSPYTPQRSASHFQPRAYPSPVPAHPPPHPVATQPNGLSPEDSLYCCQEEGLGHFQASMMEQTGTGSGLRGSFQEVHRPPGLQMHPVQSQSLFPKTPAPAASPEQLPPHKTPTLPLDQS
UniProt Q9BXF3: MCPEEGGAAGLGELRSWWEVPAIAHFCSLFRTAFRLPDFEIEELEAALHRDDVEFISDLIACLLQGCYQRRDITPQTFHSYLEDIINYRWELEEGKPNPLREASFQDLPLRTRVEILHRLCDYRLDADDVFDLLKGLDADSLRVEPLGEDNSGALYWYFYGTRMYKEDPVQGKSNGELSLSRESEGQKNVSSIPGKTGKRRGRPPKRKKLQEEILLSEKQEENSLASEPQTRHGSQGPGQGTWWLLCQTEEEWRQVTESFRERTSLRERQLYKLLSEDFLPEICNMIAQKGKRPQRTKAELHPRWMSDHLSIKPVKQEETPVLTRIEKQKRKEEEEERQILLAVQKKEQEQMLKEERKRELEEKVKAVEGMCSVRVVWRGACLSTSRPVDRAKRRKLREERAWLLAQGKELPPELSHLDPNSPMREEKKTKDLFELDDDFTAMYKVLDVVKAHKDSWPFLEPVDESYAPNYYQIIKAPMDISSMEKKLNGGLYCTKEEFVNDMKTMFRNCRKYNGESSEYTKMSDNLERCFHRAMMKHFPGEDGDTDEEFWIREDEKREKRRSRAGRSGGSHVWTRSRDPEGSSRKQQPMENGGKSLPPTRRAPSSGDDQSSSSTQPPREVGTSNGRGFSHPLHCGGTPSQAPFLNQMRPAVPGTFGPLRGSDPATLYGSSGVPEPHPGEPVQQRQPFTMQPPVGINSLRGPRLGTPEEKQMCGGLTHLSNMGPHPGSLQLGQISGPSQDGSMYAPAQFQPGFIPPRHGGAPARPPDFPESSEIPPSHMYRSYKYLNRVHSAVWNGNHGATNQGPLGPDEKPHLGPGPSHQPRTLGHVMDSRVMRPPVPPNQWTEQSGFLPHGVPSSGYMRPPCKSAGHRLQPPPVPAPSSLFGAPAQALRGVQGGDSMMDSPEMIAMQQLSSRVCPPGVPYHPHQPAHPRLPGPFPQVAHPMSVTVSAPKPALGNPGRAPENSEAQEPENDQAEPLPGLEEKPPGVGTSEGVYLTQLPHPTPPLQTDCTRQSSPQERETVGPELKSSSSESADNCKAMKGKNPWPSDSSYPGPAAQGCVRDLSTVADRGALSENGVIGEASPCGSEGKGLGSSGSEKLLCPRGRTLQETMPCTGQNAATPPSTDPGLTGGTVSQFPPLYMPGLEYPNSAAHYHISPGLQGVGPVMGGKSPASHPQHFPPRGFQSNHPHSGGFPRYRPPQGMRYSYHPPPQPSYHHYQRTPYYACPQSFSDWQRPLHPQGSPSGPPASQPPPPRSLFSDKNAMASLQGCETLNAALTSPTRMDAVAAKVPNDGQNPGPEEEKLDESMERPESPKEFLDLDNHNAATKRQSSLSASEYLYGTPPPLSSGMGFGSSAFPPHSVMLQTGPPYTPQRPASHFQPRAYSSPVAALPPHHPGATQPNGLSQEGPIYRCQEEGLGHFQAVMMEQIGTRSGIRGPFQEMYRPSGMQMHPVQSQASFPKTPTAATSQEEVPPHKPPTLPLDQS

CECR2 (Cat eye syndrome chromosome region candidate 2), endogenous in 4T1 cells (from UniProt E9Q2Z1 1-1453)
binding [1]: binds

GFP-CECR2 (from UniProt Q9BXF3 1-1484)
binding [2]: binds
